Earlier results as cited in article PMC6359144 (International Journal of Molecular Sciences, 2019).
Like-named read-outs stand apart in the source and are kept apart here.

Columns and labels:
518A2 melanoma cells = system: 518A2 melanoma cells; set-up: method as in earlier work; settings: MTT, and 34, cited from earlier work
[1] = system: Ea.Hy926 endothelial hybrid cells; set-up: method as in earlier work; settings: read-out: IC50 Ea.Hy926 (72 h), MTT, and 34; cited from earlier work
[2] = system: KB-V1^Vbl cervix carcinoma cells; settings: read-out: IC50 KB-V1^Vbl (72 h), MTT, and 34; cited from earlier work
[3] = system: MCF-7^Topo breast adenocarcinoma cells; set-up: method as in earlier work; settings: read-out: IC50 MCF-7^Topo (72 h), MTT, and 34; cited from earlier work
[4] = system: HCT-116 colon carcinoma cells; set-up: method as in earlier work; settings: read-out: IC50 HCT-116 (72 h), MTT, and 34; cited from earlier work
[5] = system: HT-29 colon carcinoma cells; set-up: method as in earlier work; settings: MTT, and 34, cited from earlier work

O=C(CCCCCCC(=O)Nc1ccccc1)NO [SAHA, Suberoyl anilide hydroxamic acid]
IC50 (518A2 melanoma cells; 24 h, read-out: IC50 518A2 (24 h)): 18.7 ± 0.1 µM
IC50 (518A2 melanoma cells; read-out: IC50 518A2 (72 h), 72 h): 1.8 ± 0.1 µM
IC50 [1]: 1.9 ± 0.2 µM
IC50 [2]: 13.1 ± 0.8 µM
IC50 [3]: 13.5 ± 0.7 µM
IC50 [4]: 0.9 ± 0.1 µM
IC50 ([5]; 24 h, read-out: IC50 HT-29 (24 h)): 1.9 ± 0.3 µM
IC50 ([5]; read-out: IC50 HT-29 (72 h), 72 h): 1.8 ± 0.1 µM
